The values below come from paper doi:10.1101/2021.02.19.431861.

Protein sequences, listed by entry. Tags and fused reporters are not part of them. Lines headed by an entry give the natural chain unless they say otherwise; changes in a name come on top. Residues count along the entry.
UniProt Q9BXW4, residues 1-126: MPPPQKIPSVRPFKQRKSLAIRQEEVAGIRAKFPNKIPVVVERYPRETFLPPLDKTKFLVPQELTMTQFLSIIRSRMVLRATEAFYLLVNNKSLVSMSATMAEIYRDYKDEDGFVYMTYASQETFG
UniProt Q8TDY2: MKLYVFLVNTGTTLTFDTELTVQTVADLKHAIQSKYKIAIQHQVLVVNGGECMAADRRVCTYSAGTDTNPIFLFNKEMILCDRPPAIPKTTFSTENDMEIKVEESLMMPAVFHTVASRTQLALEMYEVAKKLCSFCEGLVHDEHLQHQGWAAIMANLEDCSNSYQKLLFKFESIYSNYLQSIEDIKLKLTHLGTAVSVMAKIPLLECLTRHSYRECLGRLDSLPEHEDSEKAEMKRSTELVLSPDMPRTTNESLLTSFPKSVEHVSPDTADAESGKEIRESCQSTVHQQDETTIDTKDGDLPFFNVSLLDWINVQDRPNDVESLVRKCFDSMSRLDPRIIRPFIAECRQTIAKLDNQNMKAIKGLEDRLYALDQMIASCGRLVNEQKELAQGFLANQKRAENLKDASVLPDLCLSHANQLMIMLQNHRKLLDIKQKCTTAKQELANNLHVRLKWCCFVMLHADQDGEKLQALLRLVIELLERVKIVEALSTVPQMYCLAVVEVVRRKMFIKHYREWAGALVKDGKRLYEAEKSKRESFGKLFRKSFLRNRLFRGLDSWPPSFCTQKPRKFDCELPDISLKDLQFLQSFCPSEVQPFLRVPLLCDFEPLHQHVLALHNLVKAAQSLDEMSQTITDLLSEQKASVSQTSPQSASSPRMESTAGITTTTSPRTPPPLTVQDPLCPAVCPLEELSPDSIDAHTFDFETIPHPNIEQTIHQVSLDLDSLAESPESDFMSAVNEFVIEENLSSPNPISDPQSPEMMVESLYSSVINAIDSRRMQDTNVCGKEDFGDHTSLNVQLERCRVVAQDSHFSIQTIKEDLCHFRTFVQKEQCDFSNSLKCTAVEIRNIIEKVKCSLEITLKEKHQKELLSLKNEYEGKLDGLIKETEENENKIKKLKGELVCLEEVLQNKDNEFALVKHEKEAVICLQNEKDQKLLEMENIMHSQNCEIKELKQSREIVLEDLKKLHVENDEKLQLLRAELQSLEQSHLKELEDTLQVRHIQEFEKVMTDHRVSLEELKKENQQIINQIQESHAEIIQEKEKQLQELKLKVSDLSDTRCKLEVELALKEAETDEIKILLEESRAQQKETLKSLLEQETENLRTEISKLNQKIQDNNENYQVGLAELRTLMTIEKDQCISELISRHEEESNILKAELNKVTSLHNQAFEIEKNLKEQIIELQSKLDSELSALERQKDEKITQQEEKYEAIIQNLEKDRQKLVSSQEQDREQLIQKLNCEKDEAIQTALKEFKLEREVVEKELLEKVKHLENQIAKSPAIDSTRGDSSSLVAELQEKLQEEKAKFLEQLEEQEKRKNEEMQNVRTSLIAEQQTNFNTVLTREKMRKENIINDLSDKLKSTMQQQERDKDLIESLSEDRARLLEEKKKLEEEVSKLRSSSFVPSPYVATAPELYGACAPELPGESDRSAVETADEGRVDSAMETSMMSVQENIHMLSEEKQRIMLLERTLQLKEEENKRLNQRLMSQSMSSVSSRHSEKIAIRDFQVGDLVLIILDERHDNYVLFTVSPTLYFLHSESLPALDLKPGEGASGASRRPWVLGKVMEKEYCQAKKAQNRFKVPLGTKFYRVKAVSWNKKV
UniProt Q9H1Y0: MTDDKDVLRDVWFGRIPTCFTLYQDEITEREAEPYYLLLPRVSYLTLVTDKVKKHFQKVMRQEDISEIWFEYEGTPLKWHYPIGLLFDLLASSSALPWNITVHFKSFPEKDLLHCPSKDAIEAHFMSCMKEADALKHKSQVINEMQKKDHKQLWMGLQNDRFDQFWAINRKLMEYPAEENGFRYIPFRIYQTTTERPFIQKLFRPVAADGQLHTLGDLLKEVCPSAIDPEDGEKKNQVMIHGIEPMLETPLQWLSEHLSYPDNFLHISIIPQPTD
UniProt O94817: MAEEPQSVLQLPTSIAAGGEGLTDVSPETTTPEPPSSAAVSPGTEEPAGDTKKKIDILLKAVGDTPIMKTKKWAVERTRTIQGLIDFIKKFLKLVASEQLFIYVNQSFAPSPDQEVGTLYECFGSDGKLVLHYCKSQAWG
UniProt Q14457: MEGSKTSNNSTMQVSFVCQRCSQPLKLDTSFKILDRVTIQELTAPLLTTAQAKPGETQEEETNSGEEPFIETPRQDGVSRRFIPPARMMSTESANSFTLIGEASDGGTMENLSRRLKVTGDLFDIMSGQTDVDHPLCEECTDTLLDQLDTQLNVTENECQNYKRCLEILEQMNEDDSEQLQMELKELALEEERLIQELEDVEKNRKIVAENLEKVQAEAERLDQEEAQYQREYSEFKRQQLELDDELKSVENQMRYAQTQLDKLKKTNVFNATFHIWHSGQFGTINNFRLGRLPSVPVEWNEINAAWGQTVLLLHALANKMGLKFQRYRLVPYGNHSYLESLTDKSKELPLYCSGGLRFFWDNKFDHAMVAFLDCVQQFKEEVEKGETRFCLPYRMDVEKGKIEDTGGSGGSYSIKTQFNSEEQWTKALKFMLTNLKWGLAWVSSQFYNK
UniProt O00443: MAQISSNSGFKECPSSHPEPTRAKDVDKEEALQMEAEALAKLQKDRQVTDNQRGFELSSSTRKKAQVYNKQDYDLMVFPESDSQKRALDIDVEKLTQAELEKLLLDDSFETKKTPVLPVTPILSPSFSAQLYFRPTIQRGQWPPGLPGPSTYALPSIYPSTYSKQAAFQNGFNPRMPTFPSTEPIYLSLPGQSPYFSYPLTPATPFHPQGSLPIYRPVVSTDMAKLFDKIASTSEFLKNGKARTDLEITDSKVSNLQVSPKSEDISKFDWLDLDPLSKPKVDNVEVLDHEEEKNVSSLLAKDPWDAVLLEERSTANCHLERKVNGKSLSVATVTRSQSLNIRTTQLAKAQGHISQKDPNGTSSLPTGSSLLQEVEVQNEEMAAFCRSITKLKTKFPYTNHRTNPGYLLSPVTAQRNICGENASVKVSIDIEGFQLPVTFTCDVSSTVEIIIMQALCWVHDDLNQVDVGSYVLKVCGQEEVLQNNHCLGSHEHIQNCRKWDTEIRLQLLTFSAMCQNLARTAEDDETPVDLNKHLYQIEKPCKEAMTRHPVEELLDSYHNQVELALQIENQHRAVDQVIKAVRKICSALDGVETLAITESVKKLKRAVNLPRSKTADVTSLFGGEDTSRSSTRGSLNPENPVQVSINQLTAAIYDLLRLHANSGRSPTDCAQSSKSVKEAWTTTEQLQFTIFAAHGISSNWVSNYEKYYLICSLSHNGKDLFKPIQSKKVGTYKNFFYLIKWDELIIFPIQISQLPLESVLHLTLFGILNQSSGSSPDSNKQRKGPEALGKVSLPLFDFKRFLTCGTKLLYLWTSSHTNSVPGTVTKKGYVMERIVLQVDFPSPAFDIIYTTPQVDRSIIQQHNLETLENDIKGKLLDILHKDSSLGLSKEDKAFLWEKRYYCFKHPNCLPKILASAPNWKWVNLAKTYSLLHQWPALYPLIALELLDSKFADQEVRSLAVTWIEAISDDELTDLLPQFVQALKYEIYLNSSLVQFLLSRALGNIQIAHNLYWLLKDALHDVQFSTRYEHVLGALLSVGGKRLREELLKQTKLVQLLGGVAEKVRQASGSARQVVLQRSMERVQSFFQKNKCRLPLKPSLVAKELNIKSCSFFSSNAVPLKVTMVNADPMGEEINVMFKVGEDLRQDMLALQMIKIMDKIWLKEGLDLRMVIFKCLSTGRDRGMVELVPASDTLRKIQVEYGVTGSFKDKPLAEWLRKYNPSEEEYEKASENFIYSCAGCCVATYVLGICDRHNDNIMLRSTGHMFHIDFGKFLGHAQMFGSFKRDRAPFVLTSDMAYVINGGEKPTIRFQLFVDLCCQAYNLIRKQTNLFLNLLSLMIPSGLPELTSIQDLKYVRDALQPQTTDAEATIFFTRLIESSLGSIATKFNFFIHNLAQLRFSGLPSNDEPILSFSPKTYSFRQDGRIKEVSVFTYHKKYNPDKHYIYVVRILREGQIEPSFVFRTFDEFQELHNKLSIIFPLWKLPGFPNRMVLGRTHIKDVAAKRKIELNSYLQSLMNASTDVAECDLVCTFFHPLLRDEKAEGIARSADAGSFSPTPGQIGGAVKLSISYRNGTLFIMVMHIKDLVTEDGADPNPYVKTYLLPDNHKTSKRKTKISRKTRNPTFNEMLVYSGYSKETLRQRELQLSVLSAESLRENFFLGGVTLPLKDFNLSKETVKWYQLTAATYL

Common to all, as to assay: co-IP
In experiment [1] the target is FLAG-tagged LC3C C127Stop (UniProt Q9BXW4).
Experiment [2] deals with FIP200 (HEK293 cells transfected with the indicated constructs, Figure 3H) (UniProt Q8TDY2).
The target of experiment [3] is FIP200 (endogenous) (human (endogenous in Caki-1, HEK293T)) (UniProt Q8TDY2).
Experiment [4] has as its target T1, HA-ATG13 (UniProt O75143).
T1 sequence: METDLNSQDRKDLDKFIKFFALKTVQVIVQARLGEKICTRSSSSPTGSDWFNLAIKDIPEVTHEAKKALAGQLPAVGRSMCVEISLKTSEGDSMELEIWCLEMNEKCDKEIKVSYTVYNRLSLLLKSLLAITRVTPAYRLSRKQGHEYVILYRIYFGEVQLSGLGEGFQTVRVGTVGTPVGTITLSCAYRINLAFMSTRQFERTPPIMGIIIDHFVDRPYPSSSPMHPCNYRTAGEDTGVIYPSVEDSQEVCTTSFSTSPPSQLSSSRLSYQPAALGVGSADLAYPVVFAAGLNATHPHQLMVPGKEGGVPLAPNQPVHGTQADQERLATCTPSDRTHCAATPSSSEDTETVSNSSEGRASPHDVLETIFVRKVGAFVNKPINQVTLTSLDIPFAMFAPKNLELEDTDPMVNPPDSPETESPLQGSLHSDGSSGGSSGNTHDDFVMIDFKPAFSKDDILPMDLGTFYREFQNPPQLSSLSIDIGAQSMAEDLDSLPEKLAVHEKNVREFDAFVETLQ

In experiment [5] the target is T2, UVRAG (endogenous) (human (endogenous in 786-O VHL(+), Caki-1, HEK293T)) (UniProt Q9P2Y5).
T2 sequence: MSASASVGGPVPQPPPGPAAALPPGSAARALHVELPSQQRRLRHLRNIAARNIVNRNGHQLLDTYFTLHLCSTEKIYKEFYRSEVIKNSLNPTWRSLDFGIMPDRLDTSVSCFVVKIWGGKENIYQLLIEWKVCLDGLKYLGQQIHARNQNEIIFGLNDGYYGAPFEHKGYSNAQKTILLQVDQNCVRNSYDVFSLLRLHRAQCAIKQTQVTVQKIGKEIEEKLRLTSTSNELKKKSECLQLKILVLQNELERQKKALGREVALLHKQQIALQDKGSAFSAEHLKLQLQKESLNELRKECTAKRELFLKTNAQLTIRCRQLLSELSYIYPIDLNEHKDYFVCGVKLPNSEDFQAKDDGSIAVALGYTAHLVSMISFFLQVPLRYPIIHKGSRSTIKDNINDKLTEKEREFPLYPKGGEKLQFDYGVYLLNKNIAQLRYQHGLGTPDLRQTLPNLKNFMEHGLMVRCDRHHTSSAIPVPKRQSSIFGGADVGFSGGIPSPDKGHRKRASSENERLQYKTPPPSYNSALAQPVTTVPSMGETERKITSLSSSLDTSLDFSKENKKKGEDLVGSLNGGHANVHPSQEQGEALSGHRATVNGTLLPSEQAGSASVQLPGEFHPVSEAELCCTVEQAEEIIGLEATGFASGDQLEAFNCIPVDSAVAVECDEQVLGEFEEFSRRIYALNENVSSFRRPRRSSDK

The target in experiment [6] is T3, Strawberry-tagged ULK3 (STR-ULK3) (UniProt Q6PHR2).
T3 sequence: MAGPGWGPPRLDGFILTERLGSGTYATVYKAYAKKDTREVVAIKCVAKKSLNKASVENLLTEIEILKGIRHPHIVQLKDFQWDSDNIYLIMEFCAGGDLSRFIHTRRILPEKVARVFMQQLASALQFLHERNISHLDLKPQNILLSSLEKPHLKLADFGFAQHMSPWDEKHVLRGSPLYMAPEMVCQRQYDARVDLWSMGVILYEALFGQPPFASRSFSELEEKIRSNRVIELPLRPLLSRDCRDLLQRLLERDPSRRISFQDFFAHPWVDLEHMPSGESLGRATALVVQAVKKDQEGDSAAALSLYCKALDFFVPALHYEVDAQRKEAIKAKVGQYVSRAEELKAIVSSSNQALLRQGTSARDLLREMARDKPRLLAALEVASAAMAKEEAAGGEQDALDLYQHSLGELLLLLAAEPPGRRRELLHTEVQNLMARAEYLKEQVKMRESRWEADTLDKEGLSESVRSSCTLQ

Experiment [7] has as its target FIP200 (HEK293 cells transfected with the indicated constructs, Figure 3H) (UniProt Q8TDY2). The source holds these as a separate data set.
Experiment [8] deals with FIP200 (endogenous) (human (endogenous in Caki-1, HEK293T)) (UniProt Q8TDY2). This is another data set of the same source.
For experiment [9], the target named is T1, HA-ATG13. The source holds these as a separate data set.

Read-outs that look alike come from different tables or passages of the source. Results are given in words; binding and its absence hold for the method and conditions named. Binding seen in cells or lysates may run through a third protein. Some entries that bind do so weakly or less than the wild type. For some of these results: Sequences can lack the tags named with a protein.

For “ATG5-12 conjugate (from UniProt Q9H1Y0;O94817) (complex)”, in experiment [1], the binding entry is “binds”. Still for that read-out and setting: as for “BECN1 (endogenous) (from UniProt Q14457 1-450)”, the entry is “binds”; as for “FIP200 (endogenous) (from UniProt Q8TDY2 1-1594)”, “binds”. Turning to “LC3C (HEK293 cells transfected with the indicated constructs, Figure 3H) (from UniProt Q9BXW4 1-126)”, the binding entry in experiment [2] is “binds”. Regarding “MAP1LC3C (LC3C), endogenous (from UniProt Q9BXW4 1-126)”, the binding entry (in [3]; with HA-ATG13 [4]) was “binds” in each case.

Take “PIK3C2A (endogenous) (from UniProt O00443 1-1686)”: the binding entry in experiment [5] is reported as “binds”.

B1: MKLP1 (endogenous) (protein, UniProt Q02241 1-960)
chain: MKSARAKTPRKPTVKKGSQTNLKDPVGVYCRVRPLGFPDQECCIEVINNTTVQLHTPEGYRLNRNGDYKETQYSFKQVFGTHTTQKELFDVVANPLVNDLIHGKNGLLFTYGVTGSGKTHTMTGSPGEGGLLPRCLDMIFNSIGSFQAKRYVFKSNDRNSMDIQCEVDALLERQKREAMPNPKTSSSKRQVDPEFADMITVQEFCKAEEVDEDSVYGVFVSYIEIYNNYIYDLLEEVPFDPIKPKPPQSKLLREDKNHNMYVAGCTEVEVKSTEEAFEVFWRGQKKRRIANTHLNRESSRSHSVFNIKLVQAPLDADGDNVLQEKEQITISQLSLVDLAGSERTNRTRAEGNRLREAGNINQSLMTLRTCMDVLRENQMYGTNKMVPYRDSKLTHLFKNYFDGEGKVRMIVCVNPKAEDYEENLQVMRFAEVTQEVEVARPVDKAICGLTPGRRYRNQPRGPVGNEPLVTDVVLQSFPPLPSCEILDINDEQTLPRLIEALEKRHNLRQMMIDEFNKQSNAFKALLQEFDNAVLSKENHMQGKLNEKEKMISGQKLEIERLEKKNKTLEYKIEILEKTTTIYEEDKRNLQQELETQNQKLQRQFSDKRRLEARLQGMVTETTMKWEKECERRVAAKQLEMQNKLWVKDEKLKQLKAIVTEPKTEKPERPSRERDREKVTQRSVSPSPVPLSSNYIAQISNGQQLMSQPQLHRRSNSCSSISVASCISEWEQKIPTYNTPLKVTSIARRRQQEPGQSKTCIVSDRRRGMYWTEGREVVPTFRNEIEIEEDHCGRLLFQPDQNAPPIRLRHRRSRSAGDRWVDHKPASNMQTETVMQPHVPHAITVSVANEKALAKCEKYMLTHQELASDGEIETKLIKGDIYKTRGGGQSVQFTDIETLKQESPNGSRKRRSSTVAPAQPDGAESEWTDVETRCSVAVEMRAGSQLGPGYQHHAQPKRKKP
For the molecule B1, the binding result in experiment [6] was “binds”.

B2: CYK4 (endogenous) (protein, UniProt Q9H0H5 1-632)
chain: MDTMMLNVRNLFEQLVRRVEILSEGNEVQFIQLAKDFEDFRKKWQRTDHELGKYKDLLMKAETERSALDVKLKHARNQVDVEIKRRQRAEADCEKLERQIQLIREMLMCDTSGSIQLSEEQKSALAFLNRGQPSSSNAGNKRLSTIDESGSILSDISFDKTDESLDWDSSLVKTFKLKKREKRRSTSRQFVDGPPGPVKKTRSIGSAVDQGNESIVAKTTVTVPNDGGPIEAVSTIETVPYWTRSRRKTGTLQPWNSDSTLNSRQLEPRTETDSVGTPQSNGGMRLHDFVSKTVIKPESCVPCGKRIKFGKLSLKCRDCRVVSHPECRDRCPLPCIPTLIGTPVKIGEGMLADFVSQTSPMIPSIVVHCVNEIEQRGLTETGLYRISGCDRTVKELKEKFLRVKTVPLLSKVDDIHAICSLLKDFLRNLKEPLLTFRLNRAFMEAAEITDEDNSIAAMYQAVGELPQANRDTLAFLMIHLQRVAQSPHTKMDVANLAKVFGPTIVAHAVPNPDPVTMLQDIKRQPKVVERLLSLPLEYWSQFMMVEQENIDPLHVIENSNAFSTPQTPDIKVSLLGPVTTPEHQLLKTPSSSSLSQRVRSTLTKNTPRFGSKSKSATNLGRQGNFFASPMLK
Take B2: the binding entry in experiment [6] was “binds”.

B3: CEP55 (endogenous) (protein, UniProt Q53EZ4 1-464)
chain: MSSRSTKDLIKSKWGSKPSNSKSETTLEKLKGEIAHLKTSVDEITSGKGKLTDKERHRLLEKIRVLEAEKEKNAYQLTEKDKEIQRLRDQLKARYSTTTLLEQLEETTREGERREQVLKALSEEKDVLKQQLSAATSRIAELESKTNTLRLSQTVAPNCFNSSINNIHEMEIQLKDALEKNQQWLVYDQQREVYVKGLLAKIFELEKKTETAAHSLPQQTKKPESEGYLQEEKQKCYNDLLASAKKDLEVERQTITQLSFELSEFRRKYEETQKEVHNLNQLLYSQRRADVQHLEDDRHKTEKIQKLREENDIARGKLEEEKKRSEELLSQVQFLYTSLLKQQEEQTRVALLEQQMQACTLDFENEKLDRQHVQHQLHVILKELRKARNQITQLESLKQLHEFAITEPLVTFQGETENREKVAASPKSPTAALNESLVECPKCNIQYPATEHRDLLVHVEYCSK
For B3, in [6], the binding result is on record as “binds”.

B4: ULK3 (HEK293 cells transfected with the indicated constructs, Figure 3H) (protein, UniProt Q6PHR2 1-472)
chain: MAGPGWGPPRLDGFILTERLGSGTYATVYKAYAKKDTREVVAIKCVAKKSLNKASVENLLTEIEILKGIRHPHIVQLKDFQWDSDNIYLIMEFCAGGDLSRFIHTRRILPEKVARVFMQQLASALQFLHERNISHLDLKPQNILLSSLEKPHLKLADFGFAQHMSPWDEKHVLRGSPLYMAPEMVCQRQYDARVDLWSMGVILYEALFGQPPFASRSFSELEEKIRSNRVIELPLRPLLSRDCRDLLQRLLERDPSRRISFQDFFAHPWVDLEHMPSGESLGRATALVVQAVKKDQEGDSAAALSLYCKALDFFVPALHYEVDAQRKEAIKAKVGQYVSRAEELKAIVSSSNQALLRQGTSARDLLREMARDKPRLLAALEVASAAMAKEEAAGGEQDALDLYQHSLGELLLLLAAEPPGRRRELLHTEVQNLMARAEYLKEQVKMRESRWEADTLDKEGLSESVRSSCTLQ
As for B4, the binding result in experiment [7] was “binds”.

B5: ULK3 (endogenous) (protein, UniProt Q6PHR2 1-472)
chain: MAGPGWGPPRLDGFILTERLGSGTYATVYKAYAKKDTREVVAIKCVAKKSLNKASVENLLTEIEILKGIRHPHIVQLKDFQWDSDNIYLIMEFCAGGDLSRFIHTRRILPEKVARVFMQQLASALQFLHERNISHLDLKPQNILLSSLEKPHLKLADFGFAQHMSPWDEKHVLRGSPLYMAPEMVCQRQYDARVDLWSMGVILYEALFGQPPFASRSFSELEEKIRSNRVIELPLRPLLSRDCRDLLQRLLERDPSRRISFQDFFAHPWVDLEHMPSGESLGRATALVVQAVKKDQEGDSAAALSLYCKALDFFVPALHYEVDAQRKEAIKAKVGQYVSRAEELKAIVSSSNQALLRQGTSARDLLREMARDKPRLLAALEVASAAMAKEEAAGGEQDALDLYQHSLGELLLLLAAEPPGRRRELLHTEVQNLMARAEYLKEQVKMRESRWEADTLDKEGLSESVRSSCTLQ
On to B5, for which the binding result (in experiment [8]; with HA-ATG13 [9]) was “binds” each time.
